Results are given in words; binding and its absence hold for the method and conditions named. Binding seen in cells or lysates may run through a third protein. Here binding means that the protein was enriched with, or labelled near, the bait; the list need not be complete. For part of these data: A no says only that the protein was not detected with the bait.
B1: ATG101 (protein, UniProt Q9BSB4 1-218)
chain: MNCRSEVLEVSVEGRQVEEAMLAVLHTVLLHRSTGKFHYKKEGTYSIGTVGTQDVDCDFIDFTYVRVSSEELDRALRKVVGEFKDALRNSGGDGLGQMSLEFYQKKKSRWPFSDECIPWEVWTVKVHVVALATEQERQICREKVGEKLCEKIINIVEVMNRHEYLPKMPTQSEVDNVFDTGLRDVQPYLYKISFQITDALGTSVTTTMRRLIKDTLAL
B2: ITFG2 (protein, UniProt Q969R8 1-447)
chain: MRSVSYVQRVALEFSGSLFPHAICLGDVDNDTLNELVVGDTSGKVSVYKNDDSRPWLTCSCQGMLTCVGVGDVCNKGKNLLVAVSAEGWFHLFDLTPAKVLDASGHHETLIGEEQRPVFKQHIPANTKVMLISDIDGDGCRELVVGYTDRVVRAFRWEELGEGPEHLTGQLVSLKKWMLEGQVDSLSVTLGPLGLPELMVSQPGCAYAILLCTWKKDTGSPPASEGPTDGSRETPAARDVVLHQTSGRIHNKNVSTHLIGNIKQGHGTESSGSGLFALCTLDGTLKLMEEMEEADKLLWSVQVDHQLFALEKLDVTGNGHEEVVACAWDGQTYIIDHNRTVVRFQVDENIRAFCAGLYACKEGRNSPCLVYVTFNQKIYVYWEVQLERMESTNLVKLLETKPEYHSLLQELGVDPDDLPVTRALLHQTLYHPDQPPQCAPSSLQDPT
B3: NPRL2 (protein, UniProt Q8WTW4 1-380)
chain: MGSGCRIECIFFSEFHPTLGPKITYQVPEDFISRELFDTVQVYIITKPELQNKLITVTAMEKKLIGCPVCIEHKKYSRNALLFNLGFVCDAQAKTCALEPIVKKLAGYLTTLELESSFVSMEESKQKLVPIMTILLEELNASGRCTLPIDESNTIHLKVIEQRPDPPVAQEYDVPVFTKDKEDFFNSQWDLTTQQILPYIDGFRHIQKISAEADVELNLVRIAIQNLLYYGVVTLVSILQYSNVYCPTPKVQDLVDDKSLQEACLSYVTKQGHKRASLRDVFQLYCSLSPGTTVRDLIGRHPQQLQHVDERKLIQFGLMKNLIRRLQKYPVRVTREEQSHPARLYTGCHSYDEICCKTGMSYHELDERLENDPNIIICWK
B4: BNIP1 (protein, UniProt Q12981 1-228)
chain: MAAPQDVHVRICNQEIVKFDLEVKALIQDIRDCSGPLSALTELNTKVKEKFQQLRHRIQDLEQLAKEQDKESEKQLLLQEVENHKKQMLSNQASWRKANLTCKIAIDNLEKAELLQGGDLLRQRKTTKESLAQTSSTITESLMGISRMMAQQVQQSEEAMQSLVTSSRTILDANEEFKSMSGTIQLGRKLITKYNRRELTDKLLIFLALALFLATVLYIVKKRLFPFL
B5: PIBF1 (protein, UniProt Q8WXW3 1-757)
chain: MSRKISKESKKVNISSSLESEDISLETTVPTDDISSSEEREGKVRITRQLIERKELLHNIQLLKIELSQKTMMIDNLKVDYLTKIEELEEKLNDALHQKQLLTLRLDNQLAFQQKDASKYQELMKQEMETILLRQKQLEETNLQLREKAGDVRRNLRDFELTEEQYIKLKAFPEDQLSIPEYVSVRFYELVNPLRKEICELQVKKNILAEELSTNKNQLKQLTETYEEDRKNYSEVQIRCQRLALELADTKQLIQQGDYRQENYDKVKSERDALEQEVIELRRKHEILEASHMIQTKERSELSKEVVTLEQTVTLLQKDKEYLNRQNMELSVRCAHEEDRLERLQAQLEESKKAREEMYEKYVASRDHYKTEYENKLHDELEQIRLKTNQEIDQLRNASREMYERENRNLREARDNAVAEKERAVMAEKDALEKHDQLLDRYRELQLSTESKVTEFLHQSKLKSFESERVQLLQEETARNLTQCQLECEKYQKKLEVLTKEFYSLQASSEKRITELQAQNSEHQARLDIYEKLEKELDEIIMQTAEIENEDEAERVLFSYGYGANVPTTAKRRLKQSVHLARRVLQLEKQNSLILKDLEHRKDQVTQLSQELDRANSLLNQTQQPYRYLIESVRQRDSKIDSLTESIAQLEKDVSNLNKEKSALLQTKNQMALDLEQLLNHREELAAMKQILVKMHSKHSENSLLLTKTEPKHVTENQKSKTLNVPKEHEDNIFTPKPTLFTKKEAPEWSKKQKMKT
B6: APBB1 (protein, UniProt O00213 1-710)
chain: MSVPSSLSQSAINANSHGGPALSLPLPLHAAHNQLLNAKLQATAVGPKDLRSAMGEGGGPEPGPANAKWLKEGQNQLRRAATAHRDQNRNVTLTLAEEASQEPEMAPLGPKGLIHLYSELELSAHNAANRGLRGPGLIISTQEQGPDEGEEKAAGEAEEEEEDDDDEEEEEDLSSPPGLPEPLESVEAPPRPQALTDGPREHSKSASLLFGMRNSAASDEDSSWATLSQGSPSYGSPEDTDSFWNPNAFETDSDLPAGWMRVQDTSGTYYWHIPTGTTQWEPPGRASPSQGSSPQEESQLTWTGFAHGEGFEDGEFWKDEPSDEAPMELGLKEPEEGTLTFPAQSLSPEPLPQEEEKLPPRNTNPGIKCFAVRSLGWVEMTEEELAPGRSSVAVNNCIRQLSYHKNNLHDPMSGGWGEGKDLLLQLEDETLKLVEPQSQALLHAQPIISIRVWGVGRDSGRERDFAYVARDKLTQMLKCHVFRCEAPAKNIATSLHEICSKIMAERRNARCLVNGLSLDHSKLVDVPFQVEFPAPKNELVQKFQVYYLGNVPVAKPVGVDVINGALESVLSSSSREQWTPSHVSVAPATLTILHQQTEAVLGECRVRFLSFLAVGRDVHTFAFIMAAGPASFCCHMFWCEPNAASLSEAVQAACMLRYQKCLDARSQASTSCLPAPPAESVARRVGWTVRRGVQSLWGSLKPKRLGAHTP
B7: IRS2 (protein, UniProt Q9Y4H2 1-1338)
chain: MASPPRHGPPGPASGDGPNLNNNNNNNNHSVRKCGYLRKQKHGHKRFFVLRGPGAGGDEATAGGGSAPQPPRLEYYESEKKWRSKAGAPKRVIALDCCLNINKRADAKHKYLIALYTKDEYFAVAAENEQEQEGWYRALTDLVSEGRAAAGDAPPAAAPAASCSASLPGALGGSAGAAGAEDSYGLVAPATAAYREVWQVNLKPKGLGQSKNLTGVYRLCLSARTIGFVKLNCEQPSVTLQLMNIRRCGHSDSFFFIEVGRSAVTGPGELWMQADDSVVAQNIHETILEAMKALKELFEFRPRSKSQSSGSSATHPISVPGARRHHHLVNLPPSQTGLVRRSRTDSLAATPPAAKCSSCRVRTASEGDGGAAAGAAAAGARPVSVAGSPLSPGPVRAPLSRSHTLSGGCGGRGSKVALLPAGGALQHSRSMSMPVAHSPPAATSPGSLSSSSGHGSGSYPPPPGPHPPLPHPLHHGPGQRPSSGSASASGSPSDPGFMSLDEYGSSPGDLRAFCSHRSNTPESIAETPPARDGGGGGEFYGYMTMDRPLSHCGRSYRRVSGDAAQDLDRGLRKRTYSLTTPARQRPVPQPSSASLDEYTLMRATFSGSAGRLCPSCPASSPKVAYHPYPEDYGDIEIGSHRSSSSNLGADDGYMPMTPGAALAGSGSGSCRSDDYMPMSPASVSAPKQILQPRAAAAAAAAVPSAGPAGPAPTSAAGRTFPASGGGYKASSPAESSPEDSGYMRMWCGSKLSMEHADGKLLPNGDYLNVSPSDAVTTGTPPDFFSAALHPGGEPLRGVPGCCYSSLPRSYKAPYTCGGDSDQYVLMSSPVGRILEEERLEPQATPGPSQAASAFGAGPTQPPHPVVPSPVRPSGGRPEGFLGQRGRAVRPTRLSLEGLPSLPSMHEYPLPPEPKSPGEYINIDFGEPGARLSPPAPPLLASAASSSSLLSASSPASSLGSGTPGTSSDSRQRSPLSDYMNLDFSSPKSPKPGAPSGHPVGSLDGLLSPEASSPYPPLPPRPSASPSSSLQPPPPPPAPGELYRLPPASAVATAQGPGAASSLSSDTGDNGDYTEMAFGVAATPPQPIAAPPKPEAARVASPTSGVKRLSLMEQVSGVEAFLQASQPPDPHRGAKVIRADPQGGRRRHSSETFSSTTTVTPVSPSFAHNPKRHNSASVENVSLRKSSEGGVGVGPGGGDEPPTSPRQLQPAPPLAPQGRPWTPGQPGGLVGCPGSGGSPMRRETSAGFQNGLNYIAIDVREEPGLPPQPQPPPPPLPQPGDKSSWGRTRSLGGLISAVGVGSTGGGCGGPGPGALPPANTYASIDFLSHHLKEATIVKE
B8: MTMR4 (protein, UniProt Q9NYA4 1-1195)
chain: MGEEGPPSLEYIQAKDLFPPKELVKEEENLQVPFTVLQGEGVEFLGRAADALIAISNYRLHIKFKDSVINVPLRMIDSVESRDMFQLHISCKDSKVVRCHFSTFKQCQEWLSRLSRATARPAKPEDLFAFAYHAWCLGLTEEDQHTHLCQPGEHIRCRQEAELARMGFDLQNVWRVSHINSNYKLCPSYPQKLLVPVWITDKELENVASFRSWKRIPVVVYRHLRNGAAIARCSQPEISWWGWRNADDEYLVTSIAKACALDPGTRATGGSLSTGNNDTSEACDADFDSSLTACSGVESTAAPQKLLILDARSYTAAVANRAKGGGCECEEYYPNCEVVFMGMANIHAIRNSFQYLRAVCSQMPDPSNWLSALESTKWLQHLSVMLKAAVLVANTVDREGRPVLVHCSDGWDRTPQIVALAKILLDPYYRTLEGFQVLVESDWLDFGHKFGDRCGHQENVEDQNEQCPVFLQWLDSVHQLLKQFPCLFEFNEAFLVKLVQHTYSCLYGTFLANNPCEREKRNIYKRTCSVWALLRAGNKNFHNFLYTPSSDMVLHPVCHVRALHLWTAVYLPASSPCTLGEENMDLYLSPVAQSQEFSGRSLDRLPKTRSMDDLLSACDTSSPLTRTSSDPNLNNHCQEVRVGLEPWHSNPEGSETSFVDSGVGGPQQTVGEVGLPPPLPSSQKDYLSNKPFKSHKSCSPSYKLLNTAVPREMKSNTSDPEIKVLEETKGPAPDPSAQDELGRTLDGIGEPPEHCPETEAVSALSKVISNKCDGVCNFPESSQNSPTGTPQQAQPDSMLGVPSKCVLDHSLSTVCNPPSAACQTPLDPSTDFLNQDPSGSVASISHQEQLSSVPDLTHGEEDIGKRGNNRNGQLLENPRFGKMPLELVRKPISQSQISEFSFLGSNWDSFQGMVTSFPSGEATPRRLLSYGCCSKRPNSKQMRATGPCFGGQWAQREGVKSPVCSSHSNGHCTGPGGKNQMWLSSHPKQVSSTKPVPLNCPSPVPPLYLDDDGLPFPTDVIQHRLRQIEAGYKQEVEQLRRQVRELQMRLDIRHCCAPPAEPPMDYEDDFTCLKESDGSDTEDFGSDHSEDCLSEASWEPVDKKETEVTRWVPDHMASHCYNCDCEFWLAKRRHHCRNCGNVFCAGCCHLKLPIPDQQLYDPVLVCNSCYEHIQVSRARELMSQQLKKPIATASS

Tests used:
[1] = target: SH.SZT2WT (STREP-HA tagged seizure threshold 2, wild type) (human); assay: affinity purification with mass spectrometry; SH.SZT2WT or SH.GFP bait from cleared lysate of tetracycline-induced HEK293 Flp-In T-Rex cells held on Strep-Tactin Sepharose, 1 h, 4 °C, 50 mM HEPES pH 8.0, 150 mM NaCl, 5 mM EDTA, 0.5% NP-40, 50 mM NaF; eluted with 2.5 mM D-biotin; LC-MS/MS; cells starved of amino acids and growth factors for 1 h (STA) or restimulated for 20 min (STI); hits: p-value <= 0.05 and fold-change >= 5 over the GFP control
[2] = target: SH.SZT2WT (STREP-HA tagged seizure threshold 2, wild type) (human); assay: condition: only cells restimulated with amino acids and growth factors for 20 min; affinity purification with mass spectrometry; as a1, SH.SZT2WT eluates of cells restimulated with amino acids and growth factors for 20 min (STI) set against starved cells (STA); p-value <= 0.05 and fold-change >= …

Binder	binding [1]	binding [2]
B1	binds	–
B2	binds	–
B3	binds	–
B4	binds	–
B5	binds	–
B6	binds	–
B7	binds	–
B8	binds	no binding
